These are yes or no findings as the source states them, for the method shown. A result given as binding can be weak or reduced; the word gives no strength. For some assays here: In cells and extracts the contact can be indirect.

Test [1] addresses hCXCR4Rho1D4 (full-length human CXCR4 receptor with C-terminal Rho1D4 tag) (human). Put plainly: retention of the His-tagged Nanobody in P. pastoris membrane fractions with or without hCXCR4 co-expression, anti-His immunoblot. (In general: A western blot detects proteins with antibodies after separation by electrophoresis.)
Test [2] has the same target. Put plainly: co-purification of the receptor on a Ni2+ affinity column through the hexaHis-tagged Nanobody, anti-Rho1D4 immunoblot.

B1: Nanobody CA4500 (VHH)
VHH: QVQLQESGGGLVQAGGSLRLSCAASGSTSGIIAMGWYRQAPGKQRELVARISSGSSTNYADSVKGRFTVSRDNAKNTVYLQMNSLKPEDTAVYYCNAVRRGYRNDYNSWGQGTQVTVSS
For B1, the binding entry in test [1] was “binds”.

B2: Nanobody CA4143 (VHH)
VHH: QVQLQESGGGLVQPGGSLRLSCAASGFTFSSYAMSWVRQAPGKGLEWVSTINSGGRSANYADSVKGRLTISRDNAKNTLHLQMNSLKPEDTALYYCARPRSVSRNYVPLGYDYLGQGTQVTVSS
For B2, the binding entry in test [1] is on record as “binds”.

B3: Nanobody CA4140 (VHH)
VHH: QVQLQESGGGLVQPGGSLRLSCAASGSIFSINAMGWYRQAPGKQRELVAAITSGGSTNYADSVKGRFTISRDNAENTVYLQMNNLKPEDTAVYSCNAEGTSGSSRYRRRYEYWGKGTQVTVSS
On to B3, for which, in test [1], the binding entry is reported as “binds”.

B4: Nanobody CA4142 (VHH)
VHH: QVQLQESGGGLVRTGGSLRLSCAGSGSFFSINPMGWYRQAPGQQRELVATITGSGSTNYADSVKGRFTISRDNAKNTLYLQMNSLKPEDTAVYYCNAGYFDRIGRRYDRWGQGTQVTVSS
Take B4: the binding result in test [2] and in test [1] was “binds” throughout.

The record behind these values is patent US20230071321A1 (VIB VZW, published 2023).
